From the supplement of paper PMC10849652 come the findings set out here.

Sequences of proteins named here, by UniProt entry; tags and fusion partners are left off. A change or cut given only in a name is not applied to a line headed by its entry.
UniProt Q9NT62, whole entry, looked up: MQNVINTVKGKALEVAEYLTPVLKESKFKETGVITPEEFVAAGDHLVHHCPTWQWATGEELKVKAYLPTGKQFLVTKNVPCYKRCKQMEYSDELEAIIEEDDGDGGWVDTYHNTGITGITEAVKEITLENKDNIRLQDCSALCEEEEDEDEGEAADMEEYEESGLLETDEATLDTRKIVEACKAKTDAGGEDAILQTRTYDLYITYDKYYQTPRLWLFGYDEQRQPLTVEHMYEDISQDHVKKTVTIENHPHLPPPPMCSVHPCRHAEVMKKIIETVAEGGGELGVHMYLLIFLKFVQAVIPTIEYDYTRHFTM
UniProt Q8IZT6: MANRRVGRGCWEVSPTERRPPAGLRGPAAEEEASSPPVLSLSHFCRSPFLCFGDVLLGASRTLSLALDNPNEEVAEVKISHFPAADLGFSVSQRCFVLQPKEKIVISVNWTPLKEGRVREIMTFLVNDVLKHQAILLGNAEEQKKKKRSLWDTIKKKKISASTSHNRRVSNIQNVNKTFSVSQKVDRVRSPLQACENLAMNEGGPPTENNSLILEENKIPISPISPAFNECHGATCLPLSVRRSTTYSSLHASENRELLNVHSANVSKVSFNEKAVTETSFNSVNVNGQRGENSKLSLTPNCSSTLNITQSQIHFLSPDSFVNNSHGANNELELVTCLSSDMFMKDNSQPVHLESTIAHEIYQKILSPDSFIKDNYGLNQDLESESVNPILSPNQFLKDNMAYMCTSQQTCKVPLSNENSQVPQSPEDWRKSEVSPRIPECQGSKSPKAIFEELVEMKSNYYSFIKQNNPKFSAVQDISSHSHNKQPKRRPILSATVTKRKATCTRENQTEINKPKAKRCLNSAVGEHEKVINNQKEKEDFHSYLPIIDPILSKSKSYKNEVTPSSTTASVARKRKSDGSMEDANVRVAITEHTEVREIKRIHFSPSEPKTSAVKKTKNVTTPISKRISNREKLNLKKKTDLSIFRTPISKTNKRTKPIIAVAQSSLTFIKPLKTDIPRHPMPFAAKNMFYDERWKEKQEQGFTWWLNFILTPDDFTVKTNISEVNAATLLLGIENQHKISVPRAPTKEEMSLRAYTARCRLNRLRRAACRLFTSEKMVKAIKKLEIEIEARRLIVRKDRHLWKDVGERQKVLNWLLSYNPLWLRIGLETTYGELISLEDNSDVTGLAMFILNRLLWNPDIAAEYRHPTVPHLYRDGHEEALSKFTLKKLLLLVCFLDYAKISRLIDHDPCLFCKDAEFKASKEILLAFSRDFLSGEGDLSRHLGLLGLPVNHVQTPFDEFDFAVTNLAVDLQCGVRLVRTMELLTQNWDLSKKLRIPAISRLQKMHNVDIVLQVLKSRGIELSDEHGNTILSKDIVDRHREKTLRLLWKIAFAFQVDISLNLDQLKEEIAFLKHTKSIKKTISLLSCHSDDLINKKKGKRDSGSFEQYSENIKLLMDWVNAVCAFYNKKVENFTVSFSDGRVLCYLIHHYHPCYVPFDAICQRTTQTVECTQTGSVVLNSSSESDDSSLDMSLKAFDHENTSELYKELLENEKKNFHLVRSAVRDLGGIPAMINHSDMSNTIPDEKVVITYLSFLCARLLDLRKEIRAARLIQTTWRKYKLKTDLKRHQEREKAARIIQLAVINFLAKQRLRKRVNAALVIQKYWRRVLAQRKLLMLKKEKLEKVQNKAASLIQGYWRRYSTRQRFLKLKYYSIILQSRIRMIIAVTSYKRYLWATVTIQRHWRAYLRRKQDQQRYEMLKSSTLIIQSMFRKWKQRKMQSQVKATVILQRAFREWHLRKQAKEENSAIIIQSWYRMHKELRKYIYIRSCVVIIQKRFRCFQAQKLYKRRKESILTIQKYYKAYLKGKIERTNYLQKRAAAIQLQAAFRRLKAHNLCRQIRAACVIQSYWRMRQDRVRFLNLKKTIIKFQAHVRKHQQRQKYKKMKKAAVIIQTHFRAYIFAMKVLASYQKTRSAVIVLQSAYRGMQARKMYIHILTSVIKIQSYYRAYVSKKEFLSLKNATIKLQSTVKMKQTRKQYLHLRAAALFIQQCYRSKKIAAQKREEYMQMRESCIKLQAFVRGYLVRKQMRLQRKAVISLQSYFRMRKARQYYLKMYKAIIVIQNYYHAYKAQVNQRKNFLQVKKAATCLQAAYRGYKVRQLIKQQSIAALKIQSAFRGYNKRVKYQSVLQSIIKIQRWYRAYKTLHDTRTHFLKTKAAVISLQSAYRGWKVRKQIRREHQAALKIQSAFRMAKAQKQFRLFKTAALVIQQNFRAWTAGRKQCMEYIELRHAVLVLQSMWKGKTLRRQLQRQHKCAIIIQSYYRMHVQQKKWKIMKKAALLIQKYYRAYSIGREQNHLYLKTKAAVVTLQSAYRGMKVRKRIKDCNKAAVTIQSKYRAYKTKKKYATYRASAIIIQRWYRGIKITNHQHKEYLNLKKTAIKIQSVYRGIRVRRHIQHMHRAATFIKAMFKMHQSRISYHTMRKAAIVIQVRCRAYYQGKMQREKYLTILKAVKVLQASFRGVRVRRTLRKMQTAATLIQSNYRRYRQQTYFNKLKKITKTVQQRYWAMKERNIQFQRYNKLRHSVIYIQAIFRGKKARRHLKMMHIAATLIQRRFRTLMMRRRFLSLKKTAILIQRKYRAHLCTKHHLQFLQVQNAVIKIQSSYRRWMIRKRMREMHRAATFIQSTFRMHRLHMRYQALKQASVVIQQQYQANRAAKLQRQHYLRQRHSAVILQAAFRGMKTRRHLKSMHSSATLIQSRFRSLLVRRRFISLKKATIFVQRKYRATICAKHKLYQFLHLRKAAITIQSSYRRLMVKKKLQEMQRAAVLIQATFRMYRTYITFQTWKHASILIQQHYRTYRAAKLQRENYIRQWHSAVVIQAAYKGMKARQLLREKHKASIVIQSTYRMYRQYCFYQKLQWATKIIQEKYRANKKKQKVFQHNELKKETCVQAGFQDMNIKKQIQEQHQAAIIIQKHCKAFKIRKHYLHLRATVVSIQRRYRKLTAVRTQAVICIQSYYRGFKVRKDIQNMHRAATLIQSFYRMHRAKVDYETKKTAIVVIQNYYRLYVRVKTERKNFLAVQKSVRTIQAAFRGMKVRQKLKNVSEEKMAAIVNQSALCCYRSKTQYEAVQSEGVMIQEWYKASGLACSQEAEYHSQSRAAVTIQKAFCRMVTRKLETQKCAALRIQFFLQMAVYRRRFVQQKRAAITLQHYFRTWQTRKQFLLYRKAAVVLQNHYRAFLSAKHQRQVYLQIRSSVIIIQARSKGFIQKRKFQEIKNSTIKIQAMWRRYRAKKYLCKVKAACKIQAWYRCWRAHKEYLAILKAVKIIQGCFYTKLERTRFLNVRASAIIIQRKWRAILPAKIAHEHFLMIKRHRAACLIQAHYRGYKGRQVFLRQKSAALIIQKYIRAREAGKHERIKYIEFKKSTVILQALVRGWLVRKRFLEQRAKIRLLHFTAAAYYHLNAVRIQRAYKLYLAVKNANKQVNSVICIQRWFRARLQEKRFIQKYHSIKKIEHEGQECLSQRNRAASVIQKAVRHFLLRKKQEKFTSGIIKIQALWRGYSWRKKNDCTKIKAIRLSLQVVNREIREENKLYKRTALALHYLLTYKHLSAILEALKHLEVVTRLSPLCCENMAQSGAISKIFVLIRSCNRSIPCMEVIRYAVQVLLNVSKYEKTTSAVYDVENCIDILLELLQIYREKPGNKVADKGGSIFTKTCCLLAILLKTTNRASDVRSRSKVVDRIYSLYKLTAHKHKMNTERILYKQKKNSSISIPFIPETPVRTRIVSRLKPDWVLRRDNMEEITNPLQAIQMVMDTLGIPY
UniProt P38606, whole entry, looked up: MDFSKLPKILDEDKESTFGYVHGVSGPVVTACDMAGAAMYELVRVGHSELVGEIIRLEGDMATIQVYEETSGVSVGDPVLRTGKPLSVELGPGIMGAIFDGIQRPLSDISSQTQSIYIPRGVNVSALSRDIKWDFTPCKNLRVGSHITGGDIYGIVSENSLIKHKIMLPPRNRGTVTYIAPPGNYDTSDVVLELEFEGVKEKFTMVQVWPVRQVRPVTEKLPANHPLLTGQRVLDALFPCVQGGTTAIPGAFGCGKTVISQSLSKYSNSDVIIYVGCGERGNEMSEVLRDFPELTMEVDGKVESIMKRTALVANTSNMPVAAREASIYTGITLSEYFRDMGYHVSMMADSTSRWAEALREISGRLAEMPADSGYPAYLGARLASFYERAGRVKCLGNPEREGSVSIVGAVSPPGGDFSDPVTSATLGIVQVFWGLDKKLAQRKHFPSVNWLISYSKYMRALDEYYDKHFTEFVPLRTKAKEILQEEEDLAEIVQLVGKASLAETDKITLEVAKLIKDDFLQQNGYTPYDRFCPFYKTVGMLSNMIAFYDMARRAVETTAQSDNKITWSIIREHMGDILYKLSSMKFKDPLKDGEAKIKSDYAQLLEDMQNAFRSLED
UniProt P25705: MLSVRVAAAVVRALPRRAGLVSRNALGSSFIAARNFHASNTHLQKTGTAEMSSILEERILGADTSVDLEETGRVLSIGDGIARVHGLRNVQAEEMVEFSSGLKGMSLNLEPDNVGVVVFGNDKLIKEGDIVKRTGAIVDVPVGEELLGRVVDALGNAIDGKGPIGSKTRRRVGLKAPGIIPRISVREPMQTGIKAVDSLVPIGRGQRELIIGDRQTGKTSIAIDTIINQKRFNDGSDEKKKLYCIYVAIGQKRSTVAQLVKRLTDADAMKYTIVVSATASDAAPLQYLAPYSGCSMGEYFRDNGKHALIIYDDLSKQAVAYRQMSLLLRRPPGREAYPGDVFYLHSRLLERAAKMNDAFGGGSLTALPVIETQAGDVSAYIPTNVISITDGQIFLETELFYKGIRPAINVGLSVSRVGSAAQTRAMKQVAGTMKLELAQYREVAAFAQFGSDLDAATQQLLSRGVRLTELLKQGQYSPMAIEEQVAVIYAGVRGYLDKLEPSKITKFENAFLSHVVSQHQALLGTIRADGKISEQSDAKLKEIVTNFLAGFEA
UniProt Q8N5M1: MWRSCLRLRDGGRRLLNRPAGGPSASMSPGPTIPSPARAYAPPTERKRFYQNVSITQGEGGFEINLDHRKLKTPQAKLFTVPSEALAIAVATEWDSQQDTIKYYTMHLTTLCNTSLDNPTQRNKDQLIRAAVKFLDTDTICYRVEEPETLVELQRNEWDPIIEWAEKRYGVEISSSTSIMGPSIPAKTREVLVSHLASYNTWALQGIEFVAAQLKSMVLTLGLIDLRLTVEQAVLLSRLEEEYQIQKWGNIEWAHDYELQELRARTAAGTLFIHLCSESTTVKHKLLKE
UniProt P56381: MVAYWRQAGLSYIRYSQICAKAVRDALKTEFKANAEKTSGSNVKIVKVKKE
UniProt Q9NVT9: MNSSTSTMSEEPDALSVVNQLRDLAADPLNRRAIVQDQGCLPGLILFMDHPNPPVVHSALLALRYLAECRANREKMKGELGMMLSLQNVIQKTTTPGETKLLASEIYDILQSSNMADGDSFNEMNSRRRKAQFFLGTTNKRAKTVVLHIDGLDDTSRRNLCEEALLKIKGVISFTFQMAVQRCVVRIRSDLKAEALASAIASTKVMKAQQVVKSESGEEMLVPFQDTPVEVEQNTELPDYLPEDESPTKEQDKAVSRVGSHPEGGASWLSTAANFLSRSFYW
UniProt P15336: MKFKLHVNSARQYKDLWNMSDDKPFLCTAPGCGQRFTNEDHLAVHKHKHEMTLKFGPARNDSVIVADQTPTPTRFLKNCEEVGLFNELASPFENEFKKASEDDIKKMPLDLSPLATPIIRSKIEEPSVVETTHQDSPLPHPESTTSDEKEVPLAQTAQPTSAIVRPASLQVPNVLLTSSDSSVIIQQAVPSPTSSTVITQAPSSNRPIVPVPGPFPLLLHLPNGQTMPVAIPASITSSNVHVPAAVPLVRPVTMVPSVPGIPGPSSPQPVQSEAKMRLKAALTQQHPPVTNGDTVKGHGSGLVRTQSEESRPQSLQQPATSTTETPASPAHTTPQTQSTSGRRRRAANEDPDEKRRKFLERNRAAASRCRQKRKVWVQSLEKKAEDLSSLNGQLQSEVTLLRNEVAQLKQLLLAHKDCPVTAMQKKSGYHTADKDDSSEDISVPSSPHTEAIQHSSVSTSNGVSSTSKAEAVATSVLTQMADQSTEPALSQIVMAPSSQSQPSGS
UniProt Q9H2C2: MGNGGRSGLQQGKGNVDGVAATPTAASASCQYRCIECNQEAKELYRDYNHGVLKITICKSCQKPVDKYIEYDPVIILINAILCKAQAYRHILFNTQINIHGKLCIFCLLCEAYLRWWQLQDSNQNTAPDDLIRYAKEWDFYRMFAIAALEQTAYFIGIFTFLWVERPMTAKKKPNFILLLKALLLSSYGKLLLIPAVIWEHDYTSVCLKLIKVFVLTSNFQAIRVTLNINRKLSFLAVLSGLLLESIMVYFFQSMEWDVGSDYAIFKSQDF
UniProt Q9Y294, whole entry, looked up: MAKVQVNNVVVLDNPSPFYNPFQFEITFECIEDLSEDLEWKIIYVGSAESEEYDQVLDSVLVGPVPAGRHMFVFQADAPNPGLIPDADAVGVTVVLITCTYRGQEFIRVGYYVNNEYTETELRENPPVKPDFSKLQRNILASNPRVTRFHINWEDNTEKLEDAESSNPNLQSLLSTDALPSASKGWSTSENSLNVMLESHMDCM

The other results are listed elsewhere or left out.

Compound in the first experiment: CC[C@@H]1C(=O)N(C)c2cnc(Nc3ccc(C(=O)N[C@H]4CC[C@H](N5CCN(CC6CC6)CC5)CC4)cc3OC)nc2N1C(C)C [volasertib]
As to the kind of experiment: log2 fold change, soluble protein after heating vs DMSO (PISA); higher = thermal stabilisation; K562 cells, 10 uM, 30 min; active = over 0.2 and 3.5 SD of the protein, either way, in both replicates (recomputed). The method in brief:
(§1)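 K562 cells (2×10^6 cells/mL) were treated with 10 μM compound for 30 min, and aliquots were heated for 3 min over 48°C-58°C. Pooled aliquots were extracted in PBS with 0.5% NP-40 at 4°C, and the supernatant after 21,000xg for 90 min was measured by TMTpro 16plex LC-MS/MS with channel sums equalised. Reported thermal stability, relative to control samples and from duplicates, is a log2 fold change.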
Consider ATP7A isoform 3 (UniProt Q04656), for which the log2 fold change is inactive: -0.109.
Regarding ARPC1B (UniProt O15143), the log2 fold change was inactive: 0.004.
Still for that read-out and setting: then ASAP1 isoform 2 (UniProt Q9ULH1), with inactive: -0.11.
Regarding ATG3 (UniProt Q9NT62), the log2 fold change was inactive: -0.056.
Take ARL6IP1 (UniProt Q15041): the log2 fold change is inactive: -0.008.
For the target ATG2A isoform 3 (UniProt Q2TAZ0), the log2 fold change was inactive: -0.119.
On to ARRB2 isoform 4 (UniProt P32121), for which the log2 fold change is inactive: -0.028.
Still for that read-out and setting: then ATP5MF (UniProt P56134), with inactive: 0.052.
ASPM (UniProt Q8IZT6): the log2 fold change was inactive: 0.095.
For ATP6V1A (UniProt P38606), the log2 fold change is inactive: -0.038.
For ATP11B (UniProt Q9Y2G3), the log2 fold change was inactive: 0.023.
Turning to ASL (UniProt P04424), the log2 fold change was inactive: 0.047.
Same read-out and setting: in the case of ATP6AP2 (UniProt O75787) it was inactive: -0.019; in that of ASAH1 isoform 2 (UniProt Q13510), inactive: -0.043; in that of ATP5F1A (UniProt P25705), inactive: 0.089.
Regarding ARIH2 (UniProt O95376), the log2 fold change is inactive: -0.116.
For the target ARPC3 (UniProt O15145), the log2 fold change was inactive: -0.03.
With ATPAF2 (UniProt Q8N5M1), the log2 fold change is inactive: 0.
Still for that read-out and setting: in the case of ATG2B (UniProt Q96BY7) it was inactive: -0.076.
ARPC1A (UniProt Q92747): the log2 fold change is inactive: 0.021.
Take ATP5F1E (UniProt P56381): the log2 fold change is inactive: 0.094.
For ATE1 isoform 2 (UniProt O95260), the log2 fold change was inactive: -0.06.
As to ASPH (UniProt Q12797), the log2 fold change is inactive: 0.064.
Take ATP2C1 isoform 7 (UniProt P98194): the log2 fold change is inactive: -0.113.
Turning to ATL3 (UniProt Q6DD88), the log2 fold change is inactive: -0.134.
On the same count and under the same terms, in the case of ARPC5 (UniProt O15511) it was inactive: 0.014; in that of ARPC2 (UniProt O15144), inactive: -0.03; in that of ATP5MC2 isoform 2 (UniProt Q06055), inactive: 0.146.
Regarding ARMC1 (UniProt Q9NVT9), the log2 fold change is inactive: -0.093.
For ATF2 (UniProt P15336), the log2 fold change is inactive: -0.009.
Still for that read-out and setting: in the case of ATP6V0D1 (UniProt P61421) it was inactive: 0.117; in that of ASCC3 (UniProt Q8N3C0), inactive: -0.037; in that of ARPC4 isoform 3 (UniProt P59998), inactive: 0.049.
For ARV1 (UniProt Q9H2C2), the log2 fold change was inactive: -0.214.
Take ARSB (UniProt P15848): the log2 fold change is inactive: -0.002.
For the target ASF1A (UniProt Q9Y294), the log2 fold change was inactive: -0.054.
As for ATP11C (UniProt Q8NB49), the log2 fold change was inactive: 0.022.
Turning to ATP2B4 (UniProt P23634), the log2 fold change was inactive: 0.079.

Compound in a further experiment: CC[C@H](C)N1C=C(C2=C(C=C(C=C21)C3=CN=C(C=C3)N4CCNCC4)C(=O)NCC5=C(C=C(NC5=O)C)C)C
Described as above. The method in brief: as §1
For the target ATP7A isoform 3 (UniProt Q04656), the log2 fold change was inactive: -0.027.
Still for that read-out and setting: then ARPC1B (UniProt O15143), with inactive: -0.004.
Same read-out and setting: then ASAP1 isoform 2 (UniProt Q9ULH1), with inactive: -0.054.
For the target ATG3 (UniProt Q9NT62), the log2 fold change is inactive: 0.02.
ARL6IP1 (UniProt Q15041): the log2 fold change is inactive: -0.076.
As for ATG2A isoform 3 (UniProt Q2TAZ0), the log2 fold change was inactive: -0.007.
For the target ARRB2 isoform 4 (UniProt P32121), the log2 fold change was inactive: -0.005.
For the target ATP5MF (UniProt P56134), the log2 fold change was inactive: -0.021.
For the target ASPM (UniProt Q8IZT6), the log2 fold change is inactive: 0.1.
Same read-out and setting: in the case of ATP6V1A (UniProt P38606) it was inactive: -0.012; in that of ATP11B (UniProt Q9Y2G3), inactive: -0.012.
Consider ASL (UniProt P04424), for which the log2 fold change was inactive: -0.007.
For the target ATP6AP2 (UniProt O75787), the log2 fold change is inactive: -0.015.
ASAH1 isoform 2 (UniProt Q13510): the log2 fold change was inactive: -0.021.
On to ATP5F1A (UniProt P25705), for which the log2 fold change was inactive: -0.064.
Turning to ARIH2 (UniProt O95376), the log2 fold change was inactive: 0.012.
As to ARPC3 (UniProt O15145), the log2 fold change is inactive: -0.024.
In the case of ATPAF2 (UniProt Q8N5M1), the log2 fold change is inactive: -0.024.
As for ATG2B (UniProt Q96BY7), the log2 fold change is inactive: -0.025.
On to ARPC1A (UniProt Q92747), for which the log2 fold change was inactive: -0.025.
For ATP5F1E (UniProt P56381), the log2 fold change was inactive: -0.033.
As for ATE1 isoform 2 (UniProt O95260), the log2 fold change was inactive: -0.066.
Regarding ASPH (UniProt Q12797), the log2 fold change was inactive: -0.005.
Regarding ATP2C1 isoform 7 (UniProt P98194), the log2 fold change was inactive: -0.027.
On to ATL3 (UniProt Q6DD88), for which the log2 fold change was inactive: 0.023.
For the target ARPC5 (UniProt O15511), the log2 fold change is inactive: -0.026.
The same measure, in the same setting: then ARPC2 (UniProt O15144), with inactive: -0.036.
On the same count and under the same terms, in the case of ATP5MC2 isoform 2 (UniProt Q06055) it was inactive: -0.123; in that of ARMC1 (UniProt Q9NVT9), inactive: 0.039; in that of ATF2 (UniProt P15336), inactive: -0.267.
Take ATP6V0D1 (UniProt P61421): the log2 fold change was inactive: -0.012.
Turning to ASCC3 (UniProt Q8N3C0), the log2 fold change is inactive: -0.094.
On to ARPC4 isoform 3 (UniProt P59998), for which the log2 fold change was inactive: -0.055.
Turning to ARV1 (UniProt Q9H2C2), the log2 fold change was inactive: 0.002.
Same read-out and setting: then ARSB (UniProt P15848), with inactive: -0.076; and ASF1A (UniProt Q9Y294), with inactive: 0.031.
The same measure, in the same setting: then ATP11C (UniProt Q8NB49), with inactive: 0.012.
As for ATP2B4 (UniProt P23634), the log2 fold change was inactive: -0.036.
